Results are given in words; binding and its absence hold for the method and conditions named. In cells and extracts the contact can be indirect. Some results given as binding are weak or reduced against the parent protein; the word gives no strength. Where a sequence is shown, tags or fusion partners need not be part of it.
Target: T1, 3×Flag-HA-ZBP1 (UniProt Q9QY24)
T1 sequence: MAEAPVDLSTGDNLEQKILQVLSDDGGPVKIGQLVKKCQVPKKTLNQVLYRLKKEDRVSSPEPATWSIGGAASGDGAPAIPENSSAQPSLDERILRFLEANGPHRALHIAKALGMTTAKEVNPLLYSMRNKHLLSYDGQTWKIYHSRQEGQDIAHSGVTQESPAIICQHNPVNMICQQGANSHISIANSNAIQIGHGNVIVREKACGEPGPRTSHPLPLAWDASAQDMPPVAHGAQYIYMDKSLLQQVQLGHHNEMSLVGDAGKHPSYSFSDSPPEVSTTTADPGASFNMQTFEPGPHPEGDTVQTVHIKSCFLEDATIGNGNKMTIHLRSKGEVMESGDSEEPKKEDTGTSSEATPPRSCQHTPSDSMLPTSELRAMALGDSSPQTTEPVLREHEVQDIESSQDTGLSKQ
Assay: co-IP; lysate of Setdb1 cKO mES cells overexpressing 3×Flag-HA-ZBP1 or RIP1-HA (Setdb1 knockout, 2iL condition); lysis buffer 50 mM Tris-HCl pH 7.4, 1% NP-40, 150 mM NaCl, 1 mM EDTA, 5% glycerol; anti-HA magnetic beads or anti-Flag M2 beads, 3 h at 4 °C; 5 washes

The chains behind the UniProt entries cited, without tags or fusion partners.
UniProt Q9QZL0: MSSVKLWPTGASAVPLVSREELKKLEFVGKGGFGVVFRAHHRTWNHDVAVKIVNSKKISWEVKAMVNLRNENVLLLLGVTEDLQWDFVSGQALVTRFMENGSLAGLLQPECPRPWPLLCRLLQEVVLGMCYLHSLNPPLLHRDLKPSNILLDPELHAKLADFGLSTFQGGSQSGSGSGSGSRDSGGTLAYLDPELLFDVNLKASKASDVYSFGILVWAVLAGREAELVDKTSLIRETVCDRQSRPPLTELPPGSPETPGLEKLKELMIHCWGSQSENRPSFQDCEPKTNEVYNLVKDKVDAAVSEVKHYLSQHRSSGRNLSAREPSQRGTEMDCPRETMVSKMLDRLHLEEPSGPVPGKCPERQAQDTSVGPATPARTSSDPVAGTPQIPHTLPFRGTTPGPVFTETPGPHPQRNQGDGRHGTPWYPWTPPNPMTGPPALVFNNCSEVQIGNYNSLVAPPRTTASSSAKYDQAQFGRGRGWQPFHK

## RIPK3 (from UniProt Q9QZL0 1-486)
  binding: binds
